Experimental data reported in patent publication US20190060275A1, “Administration of hypoxia activated prodrugs and antiangiogenic agents for the treatment of cancer” (Molecular Templates, Inc., priority 2010, published 2019).
At least one compound was matched to its structure with a doubt left.

What was measured:
[1] = system: H460 non small cell lung cancer (NSCLC) xenograft tumors; assay: Sunitinib-induced hypoxia in H460 xenograft tumors (pimonidazole / Hoechst 33342, morphometrics); assay type: in vivo, nude mice; details: sunitinib 20 and 40 mg/kg QDx5; dose-dependent
[2] = system: 786-O RCC xenograft tumors; assay: Antiangiogenic-induced hypoxia in 786-O xenograft tumors (pimonidazole / Hoechst 33342, morphometric analysis); assay type: in vivo, nude mice; details: sunitinib 20 and 40 mg/kg QDx5 oral; dose-dependent
Protocol: To measure the extent of tumor hypoxia and to illustrate methods for increasing the hypoxic fraction of a tumor with an antiangiogenic agent, so as to render the tumor more susceptible to treatment with a hypoxia activated prodrug, nude mice bearing 786-O RCC xenograft tumors were randomized into 3 groups, vehicle (8 mice), sunitinib (Sutent, Pfizer) 20 mg/kg and 40 mg/kg, QDx5, oral, respectively (6 mice each). Seventy one hours after the last sunitinib administration, pimonidazole was administered. Hoechst 33342 was administered 1 hour after administering pimonidazole. About a minute after administering the Hoechst 33342, the animals were sacrificed and tissues harvested.
Sorafenib 20 mpk (mgs per kilogram) and 40 mpk were orally administered once daily for 7 days. Pimonidazole was administered 3 h after the last sorafenib administration. Hoechst 33342 was administered 1 h after administering pimonidazole. About a minute after administering the Hoechst 33342, the animals were sacrificed and tissues harvested.

CCN(CC)CCNC(=O)c1c(C)[nH]c(/C=C2\C(=O)Nc3ccc(F)cc32)c1C [Sunitinib, sunitinib]
perfusion (Hoechst 33342) [1]: decrease in perfusion
perfusion (microscopic evaluation, Hoechst 33342) [2]: decrease in perfusion
